# Melanoma cell counts after drug treatment

Data from the primary screen of doi:10.1371/journal.pone.0140310, rounded.

Drug key:
bexarotene: C=C(c1ccc(C(=O)O)cc1)c1cc2c(cc1C)C(C)(C)CCC2(C)C at 2 µM
PF-562271: CN(c1ncccc1CNc1nc(Nc2ccc3c(c2)CC(=O)N3)ncc1C(F)(F)F)S(C)(=O)=O at 0.08 µM
OSU-03012: NCC(=O)Nc1ccc(-n2nc(C(F)(F)F)cc2-c2ccc3c(ccc4ccccc43)c2)cc1 at 1 µM
embelin: CCCCCCCCCCCC1=C(O)C(=O)C=C(O)C1=O at 1.2 µM
stibogluconate: O=C(O)[C@@H]1[O][Sb](=[O])([O][Sb]2(=[O])[O][C@H]([C@H](O)CO)[C@H](O)[C@H](C(=O)O)[O]2)[O][C@H]([C@H](O)CO)[C@@H]1O (stereo partly specified) at 2 µM
ABT-263: CC1(C)CCC(c2ccc(Cl)cc2)=C(CN2CCN(c3ccc(C(=O)NS(=O)(=O)c4ccc(N[C@H](CCN5CCOCC5)CSc5ccccc5)c(S(=O)(=O)C(F)(F)F)c4)cc3)CC2)C1 at 0.4 µM
AZD7762: NC(=O)Nc1cc(-c2cccc(F)c2)sc1C(=O)N[C@H]1CCCNC1 at 0.02 µM
BI-D1870: CC(C)CCN1c2nc(Nc3cc(F)c(O)c(F)c3)ncc2N(C)C(=O)C1C (stereo unspecified) at 0.2 µM
CP-690550: C[C@@H]1CCN(C(=O)CC#N)C[C@@H]1N(C)c1ncnc2[nH]ccc12 at 1 µM
SNS-314: O=C(Nc1cccc(Cl)c1)Nc1ncc(CCNc2ncnc3ccsc23)s1 at 0.0008 µM

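Human melanoma cells were exposed to a pair of drugs for 72 h in 1,536-well plates and read by automated microscopy after fixing and staining. Values are the number of DAPI-stained nuclei as a percentage of the DMSO control: 100 is no effect, lower means fewer cells. Concentrations were fixed for each drug; these are the lower of two levels, a fifth of the higher. The file gives one value for each pair and line, without errors, so small differences may be noise.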 Only some of the drugs and lines screened are listed, without regard to their results. A dash means that no value is listed here.

| # | Drugs | A375 | A101D | 501mel | C32 | A2058 |
|---|---|---|---|---|---|---|
| 1 | AZD7762 + bexarotene | 53.1 | 94.8 | - | 111 | 129 |
| 2 | bexarotene + BI-D1870 | - | 90.8 | - | 133 | 100 |
| 3 | OSU-03012 + stibogluconate | 27.5 | 87.0 | - | 92.4 | 96.5 |
| 4 | AZD7762 + stibogluconate | 67.3 | 92.8 | - | 121 | 108 |
| 5 | OSU-03012 + AZD7762 | 11.2 | 84.6 | - | 111 | 107 |
| 6 | PF-562271 + AZD7762 | 58.9 | 78.3 | - | 77.1 | 107 |
| 7 | ABT-263 + embelin | - | 56.9 | - | 43.8 | 81.5 |
| 8 | OSU-03012 + PF-562271 | 28.2 | 87.3 | - | 86.2 | 90.6 |
| 9 | AZD7762 + ABT-263 | 31.0 | 39.3 | - | 36.6 | 98.1 |
| 10 | PF-562271 + BI-D1870 | - | 0.2 | 71.2 | 81.9 | 87.6 |
| 11 | stibogluconate + BI-D1870 | - | 85.9 | 85.2 | 118 | 89.2 |
| 12 | ABT-263 + OSU-03012 | 2.3 | 53.4 | - | 81.1 | 96.0 |
| 13 | bexarotene + SNS-314 | 118 | 99.8 | - | 116 | 101 |
| 14 | BI-D1870 + ABT-263 | - | 32.6 | - | 29.8 | 71.0 |
| 15 | stibogluconate + SNS-314 | 114 | 101 | - | 84.8 | 102 |
| 16 | OSU-03012 + bexarotene | 13.1 | 111 | - | 112 | 88.2 |
| 17 | PF-562271 + SNS-314 | 67.0 | 95.8 | - | 84.5 | 85.1 |
| 18 | PF-562271 + embelin | - | 95.1 | 85.1 | 82.4 | 82.4 |
| 19 | SNS-314 + ABT-263 | 82.0 | 48.1 | - | 48.3 | 96.1 |
| 20 | stibogluconate + CP-690550 | 91.3 | 98.7 | - | 102 | 98.1 |
| 21 | embelin + stibogluconate | - | 0.4 | 85.6 | 104 | 97.9 |
| 22 | embelin + bexarotene | - | 106 | 103 | 119 | 94.0 |
| 23 | CP-690550 + SNS-314 | 104 | 106 | - | 82.0 | 90.5 |
| 24 | CP-690550 + bexarotene | 93.8 | 89.6 | - | 106 | 89.8 |
| 25 | ABT-263 + CP-690550 | 108 | 55.6 | - | 51.1 | 100 |
| 26 | CP-690550 + PF-562271 | 82.6 | 98.4 | - | 90.6 | 86.9 |